According to the supplement of paper PMC10849652:
Some of the results follow.

Chains of the proteins cited; added tags and fusions are not shown. Lines headed by an entry give the natural chain unless they say otherwise; changes in a name come on top.
UniProt Q6P996: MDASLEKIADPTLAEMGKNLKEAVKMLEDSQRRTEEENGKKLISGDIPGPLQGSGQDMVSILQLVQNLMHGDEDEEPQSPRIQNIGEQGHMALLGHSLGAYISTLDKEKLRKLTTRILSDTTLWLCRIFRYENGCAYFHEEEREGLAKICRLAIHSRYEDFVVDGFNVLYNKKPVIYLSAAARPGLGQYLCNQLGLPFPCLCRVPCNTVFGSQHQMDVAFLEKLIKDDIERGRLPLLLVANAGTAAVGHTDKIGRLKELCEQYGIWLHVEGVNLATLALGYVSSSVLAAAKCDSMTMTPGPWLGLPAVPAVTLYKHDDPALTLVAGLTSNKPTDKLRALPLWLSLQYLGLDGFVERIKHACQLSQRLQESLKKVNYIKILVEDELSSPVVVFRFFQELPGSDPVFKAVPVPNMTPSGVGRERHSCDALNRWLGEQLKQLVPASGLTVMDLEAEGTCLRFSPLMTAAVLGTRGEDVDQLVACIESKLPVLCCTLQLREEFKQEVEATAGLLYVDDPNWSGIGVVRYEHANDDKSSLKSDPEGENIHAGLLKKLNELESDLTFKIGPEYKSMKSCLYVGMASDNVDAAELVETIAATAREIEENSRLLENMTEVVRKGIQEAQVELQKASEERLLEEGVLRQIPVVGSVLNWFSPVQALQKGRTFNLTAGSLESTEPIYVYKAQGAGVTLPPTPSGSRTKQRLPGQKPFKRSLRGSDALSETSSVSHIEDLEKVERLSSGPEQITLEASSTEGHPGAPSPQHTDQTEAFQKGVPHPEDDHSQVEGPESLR
UniProt Q9H2J4: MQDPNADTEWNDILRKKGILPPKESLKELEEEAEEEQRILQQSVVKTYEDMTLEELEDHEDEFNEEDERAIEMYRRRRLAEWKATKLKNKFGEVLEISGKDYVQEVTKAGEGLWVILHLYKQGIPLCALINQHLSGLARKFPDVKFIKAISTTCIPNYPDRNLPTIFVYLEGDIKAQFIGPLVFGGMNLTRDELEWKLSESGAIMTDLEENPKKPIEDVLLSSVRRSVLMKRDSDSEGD
UniProt Q9HBH1: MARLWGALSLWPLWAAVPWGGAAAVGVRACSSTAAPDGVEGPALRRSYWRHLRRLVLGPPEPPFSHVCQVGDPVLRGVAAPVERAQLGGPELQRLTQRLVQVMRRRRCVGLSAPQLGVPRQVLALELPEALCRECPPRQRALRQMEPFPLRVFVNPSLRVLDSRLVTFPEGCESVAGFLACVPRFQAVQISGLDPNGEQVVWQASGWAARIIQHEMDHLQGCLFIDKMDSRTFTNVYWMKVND
UniProt Q6ZW49, whole entry, looked up: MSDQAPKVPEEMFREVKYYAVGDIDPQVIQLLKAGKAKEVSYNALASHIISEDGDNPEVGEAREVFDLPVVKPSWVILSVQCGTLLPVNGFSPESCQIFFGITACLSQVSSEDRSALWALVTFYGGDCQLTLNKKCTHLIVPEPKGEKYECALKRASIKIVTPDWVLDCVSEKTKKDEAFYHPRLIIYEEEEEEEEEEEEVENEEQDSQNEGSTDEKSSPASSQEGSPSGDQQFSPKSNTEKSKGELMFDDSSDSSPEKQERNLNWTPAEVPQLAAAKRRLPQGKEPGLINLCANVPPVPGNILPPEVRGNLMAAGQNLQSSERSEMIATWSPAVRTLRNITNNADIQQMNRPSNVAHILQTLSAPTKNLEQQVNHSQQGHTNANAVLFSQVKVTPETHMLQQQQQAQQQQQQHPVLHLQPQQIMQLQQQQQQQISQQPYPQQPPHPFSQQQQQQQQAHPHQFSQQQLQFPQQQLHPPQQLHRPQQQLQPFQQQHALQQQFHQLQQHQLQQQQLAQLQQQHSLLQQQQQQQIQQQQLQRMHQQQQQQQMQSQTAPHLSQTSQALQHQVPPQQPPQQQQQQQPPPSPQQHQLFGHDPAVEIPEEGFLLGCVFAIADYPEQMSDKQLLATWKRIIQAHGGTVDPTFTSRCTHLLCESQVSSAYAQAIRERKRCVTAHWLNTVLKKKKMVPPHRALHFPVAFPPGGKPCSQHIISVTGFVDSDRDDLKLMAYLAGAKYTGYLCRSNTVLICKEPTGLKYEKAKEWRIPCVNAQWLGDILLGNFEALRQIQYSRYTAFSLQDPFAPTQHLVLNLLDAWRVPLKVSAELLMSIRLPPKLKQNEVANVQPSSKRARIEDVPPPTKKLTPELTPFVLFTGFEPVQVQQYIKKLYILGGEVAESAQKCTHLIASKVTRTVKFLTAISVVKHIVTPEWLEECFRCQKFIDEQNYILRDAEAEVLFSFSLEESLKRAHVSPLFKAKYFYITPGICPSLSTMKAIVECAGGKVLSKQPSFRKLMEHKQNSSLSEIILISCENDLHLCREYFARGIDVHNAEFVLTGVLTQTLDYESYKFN
UniProt Q460N5, whole entry, looked up: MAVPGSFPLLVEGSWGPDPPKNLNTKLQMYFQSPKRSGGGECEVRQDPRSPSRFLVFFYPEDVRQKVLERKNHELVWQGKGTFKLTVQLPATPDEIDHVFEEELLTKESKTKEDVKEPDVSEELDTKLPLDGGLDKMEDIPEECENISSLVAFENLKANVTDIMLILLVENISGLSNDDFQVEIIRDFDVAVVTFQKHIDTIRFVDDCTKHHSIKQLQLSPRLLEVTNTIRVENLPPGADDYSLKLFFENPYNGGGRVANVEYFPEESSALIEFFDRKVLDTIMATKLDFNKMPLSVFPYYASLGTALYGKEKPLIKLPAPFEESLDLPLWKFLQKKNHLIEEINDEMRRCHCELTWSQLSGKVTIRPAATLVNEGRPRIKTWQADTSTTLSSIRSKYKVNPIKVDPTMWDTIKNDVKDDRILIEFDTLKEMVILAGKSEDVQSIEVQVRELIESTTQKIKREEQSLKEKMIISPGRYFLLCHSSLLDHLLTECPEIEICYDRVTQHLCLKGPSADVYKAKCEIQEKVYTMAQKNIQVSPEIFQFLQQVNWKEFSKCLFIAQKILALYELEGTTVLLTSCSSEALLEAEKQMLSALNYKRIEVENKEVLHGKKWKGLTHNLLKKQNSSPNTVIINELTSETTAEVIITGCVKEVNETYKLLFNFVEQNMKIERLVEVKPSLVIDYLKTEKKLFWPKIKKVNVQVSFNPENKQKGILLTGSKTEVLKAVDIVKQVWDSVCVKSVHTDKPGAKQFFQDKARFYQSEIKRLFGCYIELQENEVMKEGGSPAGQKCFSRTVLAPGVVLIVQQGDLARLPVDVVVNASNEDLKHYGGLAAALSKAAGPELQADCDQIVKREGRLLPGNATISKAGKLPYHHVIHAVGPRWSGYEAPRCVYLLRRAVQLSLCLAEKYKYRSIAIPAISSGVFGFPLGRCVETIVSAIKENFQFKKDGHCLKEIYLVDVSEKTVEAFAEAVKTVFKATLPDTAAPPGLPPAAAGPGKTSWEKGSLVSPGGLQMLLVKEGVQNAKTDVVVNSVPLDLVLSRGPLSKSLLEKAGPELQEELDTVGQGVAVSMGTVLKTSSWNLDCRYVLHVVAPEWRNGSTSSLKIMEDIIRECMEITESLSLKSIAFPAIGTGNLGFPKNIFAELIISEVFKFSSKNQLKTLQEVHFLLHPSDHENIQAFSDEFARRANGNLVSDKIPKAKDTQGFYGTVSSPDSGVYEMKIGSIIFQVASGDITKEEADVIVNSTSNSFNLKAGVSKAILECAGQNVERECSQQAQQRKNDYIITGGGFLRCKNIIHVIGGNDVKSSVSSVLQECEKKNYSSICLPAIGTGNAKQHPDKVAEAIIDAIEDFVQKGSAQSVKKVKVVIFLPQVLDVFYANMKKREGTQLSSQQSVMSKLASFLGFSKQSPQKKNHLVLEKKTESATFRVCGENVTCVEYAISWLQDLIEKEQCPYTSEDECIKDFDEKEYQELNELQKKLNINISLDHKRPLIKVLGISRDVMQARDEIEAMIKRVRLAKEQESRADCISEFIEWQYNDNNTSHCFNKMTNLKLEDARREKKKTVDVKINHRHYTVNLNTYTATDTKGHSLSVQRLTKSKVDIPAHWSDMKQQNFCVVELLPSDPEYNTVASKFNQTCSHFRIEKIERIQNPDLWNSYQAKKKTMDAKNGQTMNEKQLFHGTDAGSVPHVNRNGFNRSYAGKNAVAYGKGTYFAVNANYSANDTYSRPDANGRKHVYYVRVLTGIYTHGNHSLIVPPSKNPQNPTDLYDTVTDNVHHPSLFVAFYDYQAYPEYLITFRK
UniProt Q96GD0: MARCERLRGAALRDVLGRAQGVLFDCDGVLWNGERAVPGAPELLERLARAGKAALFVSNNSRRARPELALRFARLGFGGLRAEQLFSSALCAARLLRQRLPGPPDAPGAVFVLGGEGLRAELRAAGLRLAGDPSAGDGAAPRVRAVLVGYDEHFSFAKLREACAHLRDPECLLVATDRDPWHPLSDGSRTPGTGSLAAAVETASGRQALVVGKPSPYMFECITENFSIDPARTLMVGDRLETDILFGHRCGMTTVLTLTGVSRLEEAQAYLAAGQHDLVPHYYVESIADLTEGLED
UniProt Q6L8Q7: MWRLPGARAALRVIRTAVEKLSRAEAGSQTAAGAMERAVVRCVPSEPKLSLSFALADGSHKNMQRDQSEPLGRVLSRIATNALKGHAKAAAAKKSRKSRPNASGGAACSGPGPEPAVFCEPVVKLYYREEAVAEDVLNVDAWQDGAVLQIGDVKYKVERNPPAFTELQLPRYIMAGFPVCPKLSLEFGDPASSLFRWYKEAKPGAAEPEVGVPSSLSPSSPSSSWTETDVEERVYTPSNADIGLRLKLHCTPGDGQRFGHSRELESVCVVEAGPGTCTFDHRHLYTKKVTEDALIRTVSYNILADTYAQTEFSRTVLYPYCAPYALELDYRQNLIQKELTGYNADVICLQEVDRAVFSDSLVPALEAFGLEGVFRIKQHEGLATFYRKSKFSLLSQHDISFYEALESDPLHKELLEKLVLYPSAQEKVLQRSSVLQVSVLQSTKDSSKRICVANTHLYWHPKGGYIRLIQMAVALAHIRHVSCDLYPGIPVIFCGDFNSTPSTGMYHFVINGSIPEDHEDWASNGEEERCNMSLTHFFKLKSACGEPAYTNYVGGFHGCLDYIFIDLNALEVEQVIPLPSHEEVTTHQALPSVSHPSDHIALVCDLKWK
UniProt O15067: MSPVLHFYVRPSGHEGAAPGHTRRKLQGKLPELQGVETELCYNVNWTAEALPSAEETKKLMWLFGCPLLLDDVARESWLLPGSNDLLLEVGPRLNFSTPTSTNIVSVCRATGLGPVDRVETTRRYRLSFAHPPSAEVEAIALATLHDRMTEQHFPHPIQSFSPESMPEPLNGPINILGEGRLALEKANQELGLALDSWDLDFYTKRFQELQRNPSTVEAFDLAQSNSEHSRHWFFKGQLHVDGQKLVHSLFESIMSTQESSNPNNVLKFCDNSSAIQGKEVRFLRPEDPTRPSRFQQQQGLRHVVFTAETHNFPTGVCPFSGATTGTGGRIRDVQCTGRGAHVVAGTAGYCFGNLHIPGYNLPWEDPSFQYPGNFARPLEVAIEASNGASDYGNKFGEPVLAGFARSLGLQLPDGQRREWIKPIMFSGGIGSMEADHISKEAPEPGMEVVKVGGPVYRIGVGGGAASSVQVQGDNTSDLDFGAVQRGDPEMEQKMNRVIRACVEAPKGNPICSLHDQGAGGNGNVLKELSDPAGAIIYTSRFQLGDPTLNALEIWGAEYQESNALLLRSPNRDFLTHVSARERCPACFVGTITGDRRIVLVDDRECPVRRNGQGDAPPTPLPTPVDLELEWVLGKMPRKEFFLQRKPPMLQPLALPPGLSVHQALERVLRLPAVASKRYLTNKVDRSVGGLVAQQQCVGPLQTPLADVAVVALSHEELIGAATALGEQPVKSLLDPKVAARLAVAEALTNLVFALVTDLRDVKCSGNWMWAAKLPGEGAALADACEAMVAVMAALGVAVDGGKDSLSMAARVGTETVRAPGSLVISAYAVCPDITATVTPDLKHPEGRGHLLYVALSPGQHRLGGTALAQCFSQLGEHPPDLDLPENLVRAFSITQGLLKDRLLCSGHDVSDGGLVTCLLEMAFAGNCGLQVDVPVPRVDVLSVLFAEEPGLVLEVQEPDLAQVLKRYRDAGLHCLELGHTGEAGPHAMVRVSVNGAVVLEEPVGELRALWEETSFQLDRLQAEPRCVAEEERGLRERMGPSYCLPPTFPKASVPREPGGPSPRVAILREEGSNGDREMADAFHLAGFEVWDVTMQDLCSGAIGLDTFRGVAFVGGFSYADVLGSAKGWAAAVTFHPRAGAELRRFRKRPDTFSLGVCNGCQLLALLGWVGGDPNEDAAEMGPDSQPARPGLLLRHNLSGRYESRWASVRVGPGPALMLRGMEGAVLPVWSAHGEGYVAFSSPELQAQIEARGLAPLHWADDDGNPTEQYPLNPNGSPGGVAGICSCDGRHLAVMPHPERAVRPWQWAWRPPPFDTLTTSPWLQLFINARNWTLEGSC
UniProt Q9BUH6, whole entry, looked up: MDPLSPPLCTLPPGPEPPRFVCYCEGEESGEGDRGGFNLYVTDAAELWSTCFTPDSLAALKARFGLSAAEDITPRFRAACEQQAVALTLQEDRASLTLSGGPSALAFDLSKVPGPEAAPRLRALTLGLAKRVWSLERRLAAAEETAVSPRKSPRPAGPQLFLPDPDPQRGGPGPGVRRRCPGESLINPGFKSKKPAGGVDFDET

These targets were tested with CC(C)(O)CC(=O)NCCn1ccc2ncnc(Nc3ccc(Oc4cccc(C(F)(F)F)c4)c(Cl)c3)c21 (assay: log2 fold change, soluble protein after heating vs DMSO (PISA); higher = thermal stabilisation; K562 lysate, 10 uM; active = over 0.2 and 3.5 SD of the protein, either way, in both replicates (recomputed)).
In short: (§1)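 The values are log-two fold changes in thermal stability compared with solvent controls and come from duplicates. They were obtained by TMTpro 16plex LC-MS/MS, with channel sums equalised, on the supernatant after 21,000xg for 90 min. That supernatant came from crude K562 extract at 1 mg/mL protein treated with 10 μM compound for 30 min, heated for 3 min across 48°C-58°C, pooled and brought to 0.5% NP-40 at 4°C.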

| Target | log2 fold change |
| --- | --- |
| PDXDC1 (UniProt Q6P996) | inactive: -0.017 |
| PDCL3 (UniProt Q9H2J4) | inactive: -0.018 |
| PDF (UniProt Q9HBH1) | inactive: 0.066 |
| PAXIP1 (UniProt Q6ZW49) | inactive: 0.007 |
| PARP14 (UniProt Q460N5) | inactive: 0.015 |
| PDXP (UniProt Q96GD0) | inactive: -0.006 |
| PDE12 (UniProt Q6L8Q7) | inactive: 0.02 |
| PARP16 isoform 3 (UniProt Q8N5Y8) | inactive: -0.081 |
| PFAS (UniProt O15067) | inactive: 0.006 |
| PDPR (UniProt Q8NCN5) | inactive: -0.018 |

These targets were tested with CC(C)C1=C2N=C(C=C(N2N=C1)NCC3=CC=CC=C3)NCCCCCCN in the same assay as above.
In short: as §1

| Target | log2 fold change |
| --- | --- |
| PDCD2 (UniProt Q16342) | inactive: 0.016 |
| PGAM1 (UniProt P18669) | inactive: -0.012 |
| PDCD6IP isoform 2 (UniProt Q8WUM4) | inactive: 0.013 |
| PC (UniProt P11498) | inactive: 0 |
| PCBP2 isoform 3 (UniProt Q15366) | inactive: -0.019 |
| PCIF1 (UniProt Q9H4Z3) | inactive: 0 |
| PFDN6 (UniProt O15212) | inactive: 0.038 |
| PCYT1A (UniProt P49585) | inactive: 0.023 |
| PCBP3 (UniProt P57721) | inactive: 0 |
| PDS5B (UniProt Q9NTI5) | inactive: 0.013 |
| PEBP1 (UniProt P30086) | inactive: 0.01 |
| PAXX (UniProt Q9BUH6) | inactive: -0.004 |
| PFDN5 (UniProt Q99471) | inactive: -0.026 |
| PGAM5 (UniProt Q96HS1) | inactive: 0.011 |
| PEX11B (UniProt O96011) | inactive: 0.04 |
| PFKL isoform 2 (UniProt P17858) | inactive: 0.007 |
| PEPD (UniProt P12955) | inactive: -0.008 |

| Target | log2 fold change |
| --- | --- |
| PEX13 (UniProt Q92968) | inactive: -0.147 |
| PCBD1 (UniProt P61457) | inactive: -0.019 |
| PARN (UniProt O95453) | inactive: -0.03 |
| PARP2 (UniProt Q9UGN5) | inactive: 0.069 |
| PELP1 (UniProt Q8IZL8) | inactive: -0.099 |
| PDCD10 (UniProt Q9BUL8) | inactive: -0.008 |
| PDXDC1 (UniProt Q6P996) | inactive: 0.001 |
| PDCL3 (UniProt Q9H2J4) | inactive: -0.017 |
| PDF (UniProt Q9HBH1) | inactive: 0.001 |
| PAXIP1 (UniProt Q6ZW49) | inactive: 0.009 |
| PARP14 (UniProt Q460N5) | inactive: 0.074 |
| PDXP (UniProt Q96GD0) | inactive: -0.024 |
| PDE12 (UniProt Q6L8Q7) | inactive: 0 |
| PARP16 isoform 3 (UniProt Q8N5Y8) | inactive: 0.012 |
| PFAS (UniProt O15067) | inactive: 0.003 |
| PDPR (UniProt Q8NCN5) | inactive: 0.093 |

What follows are targets tested with CC1=C(C(CC(=O)N1)C2=CC=C(C=C2)C(F)(F)F)C(=O)NC3=C(C=C4C(=C3)C=NN4)F in the same assay as above.
In short: as §1

| Target | log2 fold change |
| --- | --- |
| PDCD2 (UniProt Q16342) | inactive: -0.026 |
| PGAM1 (UniProt P18669) | inactive: 0.029 |
| PDCD6IP isoform 2 (UniProt Q8WUM4) | inactive: -0.006 |
| PC (UniProt P11498) | inactive: -0.022 |
| PCBP2 isoform 3 (UniProt Q15366) | inactive: -0.034 |
| PCIF1 (UniProt Q9H4Z3) | inactive: 0.002 |
| PFDN6 (UniProt O15212) | inactive: -0.023 |
| PCYT1A (UniProt P49585) | inactive: 0.023 |
| PCBP3 (UniProt P57721) | inactive: -0.04 |
| PDS5B (UniProt Q9NTI5) | inactive: -0.003 |
| PEBP1 (UniProt P30086) | inactive: -0.006 |
| PAXX (UniProt Q9BUH6) | inactive: -0.027 |
| PFDN5 (UniProt Q99471) | inactive: -0.056 |
| PGAM5 (UniProt Q96HS1) | inactive: -0.015 |
| PEX11B (UniProt O96011) | inactive: -0.079 |
| PFKL isoform 2 (UniProt P17858) | inactive: 0.003 |
| PEPD (UniProt P12955) | inactive: 0.024 |

| Target | log2 fold change |
| --- | --- |
| PEX13 (UniProt Q92968) | inactive: 0.061 |
| PCBD1 (UniProt P61457) | inactive: 0.018 |
| PARN (UniProt O95453) | inactive: 0.019 |
| PARP2 (UniProt Q9UGN5) | inactive: -0.027 |
| PELP1 (UniProt Q8IZL8) | inactive: 0.041 |
| PDCD10 (UniProt Q9BUL8) | inactive: -0.02 |
| PDXDC1 (UniProt Q6P996) | inactive: 0.014 |
| PDCL3 (UniProt Q9H2J4) | inactive: -0.017 |
| PDF (UniProt Q9HBH1) | inactive: 0.01 |
| PAXIP1 (UniProt Q6ZW49) | inactive: 0.074 |
| PARP14 (UniProt Q460N5) | inactive: 0.049 |
| PDXP (UniProt Q96GD0) | inactive: -0.047 |
| PDE12 (UniProt Q6L8Q7) | inactive: -0.022 |
| PARP16 isoform 3 (UniProt Q8N5Y8) | inactive: -0.058 |
| PFAS (UniProt O15067) | inactive: -0.015 |
| PDPR (UniProt Q8NCN5) | inactive: -0.004 |
